The results in this text go back to the supplement of paper PMC8975748.

SMILES strings stand for the structures. Structures can show the parent of a compound that is named as a salt. ± gives the standard deviation of the averaged measurements. The list shows a part of the results. Values are raw readings; no control value is given beside them.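 The yeast community starts from one strain carrying four plasmids, each with an amino-acid or uracil synthesis gene and a fluorescent protein. Random plasmid loss creates mixed prototroph and auxotroph subpopulations. Cells were fixed and counted by automated confocal fluorescence imaging, and DMSO-treated wells served as the vehicle reference.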

The subject of the test is Saccharomyces cerevisiae BY4741 SeMeCo community. Put plainly: imaged cell count per well (cells); higher = more cells. The settings on record: 10 µM; 24 h; SM minimal medium. How it is done: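 Same SeMeCo high-content imaging drug screen: Selleck FDA-approved drugs at 10 µM, 24 h in SM medium, 384-well plates, 3 replicates.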
For the molecule `CC(NC(C)(C)C)C(=O)c1cccc(Cl)c1` (centres undefined) [Amfebutamone (Bupropion) HCl], the “imaged cell count per well” value was found to be 19800 ± 9300.
In the case of `O=c1[nH]c2ccccc2n1CCCN1CCC(n2c(=O)[nH]c3cc(Cl)ccc32)CC1` [Domperidone], the “imaged cell count per well” value amounted to 14600 ± 2400.
The value for `COc1cc2c(cc1OC)C1CC(=O)C(CC(C)C)CN1CC2` (centres undefined) [Tetrabenazine (Xenazine)] was 14300 ± 4200; that for `CNC1CC(N)C(O)C(OC2OC(CO)C(O)C3OC4(OC(C(N)CO)C(O)C(O)C4O)OC23)C1O` (centres undefined) [Hygromycin B] was 27300 ± 5000; that for `COc1ccc2[nH]cc(CCN)c2c1` [5-Methoxytryptamine] was 27900 ± 4000.
The value for `CC[C@@]1(O)C(=O)OCc2c1cc1n(c2=O)Cc2cc3ccccc3nc2-1` [Camptothecin] was 29600 ± 2500; that for `C[C@@H]1CC[C@H]2[C@@H](C)C(=O)O[C@@H]3O[C@@]4(C)CC[C@@H]1[C@]32OO4` [Artemisinin] was 24400 ± 1700.
The value for `O=C(O[C@H]1C[N+]2(CCCOc3ccccc3)CCC1CC2)C(O)(c1cccs1)c1cccs1` [Aclidinium Bromide] was 19700 ± 5200.
Turning to `C[N+]1(C)[C@@H]2C[C@@H](OC(=O)[C@H](CO)c3ccccc3)C[C@H]1[C@@H]1O[C@@H]12` [Methscopolamine], the “imaged cell count per well” value was 18900 ± 4300.
The value for `COc1ccc(C(CN(C)C)C2(O)CCCCC2)cc1` (centres undefined) [Venlafaxine] was 26300 ± 7700; that for `CC[C@@H](C(N)=O)N1CCCC1=O` [Levetiracetam] was 20100 ± 990.
To `C[N+](C)(C)CCCCCCCCCC[N+](C)(C)C` [Decamethonium Bromide] belongs 25000 ± 3300.
`CC(=O)O[C@H]1C[C@@H]2CC[C@@H]3[C@H](CC[C@@]4(C)[C@H]3C[C@H]([N+]3(C)CCCCC3)[C@@H]4OC(C)=O)[C@@]2(C)C[C@@H]1[N+]1(C)CCCCC1` [Pancuronium dibromide]: the “imaged cell count per well” value stood at 23700 ± 1700.
To `CC[C@H]1CN2CC[C@]3(C(=O)Nc4ccccc43)[C@@H]2C[C@@H]1/C(=C\OC)C(=O)OC` [Rhynchophylline] belongs 21200 ± 6600; to `Cc1cc(O)ccc1Cl` [Chlorocresol], 23200 ± 4700.
The value for `CCOC(=O)Nc1ccc(NCc2ccc(F)cc2)cc1N` [Retigabine 2HCl] was 27400 ± 6000; that for `C=CN1CCCC1=O.II` [Povidone iodine] was 24100 ± 5800.
The value for `NCC(O)c1ccc(O)cc1` (racemic) [(+,-)-Octopamine HCl] was 27500 ± 5700; that for `CN1[C@@H]2C[C@@H](OC(=O)[C@H](CO)c3ccccc3)C[C@H]1[C@@H]1O[C@@H]12` [Scopolamine HBr] was 24400 ± 4600; that for `C[C@H]1O[C@H](O[C@H]2[C@H](O)[C@@H](O)[C@@H](O)[C@H](O)[C@@H]2O)[C@@H](N)C[C@@H]1NC(=N)C(=O)O` [Kasugamycin hydrochloride] was 28200 ± 2100.
As to `Cn1cc(C2=C(c3cn(C4CCN(Cc5ccccn5)CC4)c4ccccc34)C(=O)NC2=O)c2ccccc21`, the “imaged cell count per well” value worked out at 27200 ± 3400.
The value for `CC(=O)OCC1=C(C(=O)O)N2C(=O)[C@@H](N)[C@H]2SC1` [7-Aminocephalosporanic acid] was 25800 ± 1500; that for `CCCN1C[C@H](CSC)C[C@@H]2c3cccc4[nH]cc(c34)C[C@H]21` [Pergolide Mesylate] was 25900 ± 7600.
As to `C[N+]12CCC(CC1)C(OC(=O)C(O)(c1ccccc1)c1ccccc1)C2` (centres undefined) [Clidinium Bromide], the “imaged cell count per well” value worked out at 21600 ± 7900.
The value for `CN[C@@H]1[C@@H](O)[C@@H](O[C@@H]2[C@@H](O)[C@H](O[C@H]3O[C@H]([C@@H](C)O)[C@@H](O)[C@H](O)[C@H]3N)[C@@H](N)C[C@H]2N)OC[C@]1(C)O` [Geneticin (G418 Sulfate)] was 26100 ± 1300; that for `COc1ccc(C(CN(C)C)C2(O)CCCCC2)cc1` (centres undefined) [Venlafaxine HCl] was 26800 ± 1700; that for `COc1ccc(C=O)cc1` [p-Anisaldehyde] was 27600 ± 7800.
Regarding `Nc1nc(N)nc(NC2CC2)n1` [Cyromazine], the “imaged cell count per well” value is 19700 ± 7800.
To `CCN(C)C(=O)Oc1cccc([C@H](C)N(C)C)c1` [Rivastigmine] belongs 19300 ± 5700; to `CC(C)(O)C(Cl)(Cl)Cl` [Chlorobutanol], 21300 ± 6700; to `Cc1cc(C(C#N)c2ccc(Cl)cc2)c(Cl)cc1NC(=O)c1cc(I)cc(I)c1O` (centres undefined) [Closantel], 24500 ± 9300.
The value for `CC[N+](C)(CC)CCOC(=O)C(O)(c1ccccc1)c1ccccc1` [Methylbenactyzine Bromide] was 24900 ± 8700.
To `CN(C)C(=O)Oc1ccc[n+](C)c1` [Pyridostigmine Bromide] belongs 20900 ± 4700; to `C=C(C)[C@H]1Cc2c(ccc3c2O[C@@H]2COc4cc(OC)c(OC)cc4[C@@H]2C3=O)O1` [Rotenone (Barbasco)], 19300 ± 4800.
